# Laboratory results published in paper PMC4384122.
# Sequences of proteins named here, by UniProt entry; tags and fusion partners are left off.
# UniProt Q15717: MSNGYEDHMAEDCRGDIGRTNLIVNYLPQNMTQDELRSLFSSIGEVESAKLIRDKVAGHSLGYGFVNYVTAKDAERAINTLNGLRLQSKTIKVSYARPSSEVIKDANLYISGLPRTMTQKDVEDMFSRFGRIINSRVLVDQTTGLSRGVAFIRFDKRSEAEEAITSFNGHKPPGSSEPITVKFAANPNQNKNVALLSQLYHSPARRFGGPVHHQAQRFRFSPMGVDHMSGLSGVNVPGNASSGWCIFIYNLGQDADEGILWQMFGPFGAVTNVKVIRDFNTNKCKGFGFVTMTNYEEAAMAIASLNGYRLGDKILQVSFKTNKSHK
# UniProt P00519: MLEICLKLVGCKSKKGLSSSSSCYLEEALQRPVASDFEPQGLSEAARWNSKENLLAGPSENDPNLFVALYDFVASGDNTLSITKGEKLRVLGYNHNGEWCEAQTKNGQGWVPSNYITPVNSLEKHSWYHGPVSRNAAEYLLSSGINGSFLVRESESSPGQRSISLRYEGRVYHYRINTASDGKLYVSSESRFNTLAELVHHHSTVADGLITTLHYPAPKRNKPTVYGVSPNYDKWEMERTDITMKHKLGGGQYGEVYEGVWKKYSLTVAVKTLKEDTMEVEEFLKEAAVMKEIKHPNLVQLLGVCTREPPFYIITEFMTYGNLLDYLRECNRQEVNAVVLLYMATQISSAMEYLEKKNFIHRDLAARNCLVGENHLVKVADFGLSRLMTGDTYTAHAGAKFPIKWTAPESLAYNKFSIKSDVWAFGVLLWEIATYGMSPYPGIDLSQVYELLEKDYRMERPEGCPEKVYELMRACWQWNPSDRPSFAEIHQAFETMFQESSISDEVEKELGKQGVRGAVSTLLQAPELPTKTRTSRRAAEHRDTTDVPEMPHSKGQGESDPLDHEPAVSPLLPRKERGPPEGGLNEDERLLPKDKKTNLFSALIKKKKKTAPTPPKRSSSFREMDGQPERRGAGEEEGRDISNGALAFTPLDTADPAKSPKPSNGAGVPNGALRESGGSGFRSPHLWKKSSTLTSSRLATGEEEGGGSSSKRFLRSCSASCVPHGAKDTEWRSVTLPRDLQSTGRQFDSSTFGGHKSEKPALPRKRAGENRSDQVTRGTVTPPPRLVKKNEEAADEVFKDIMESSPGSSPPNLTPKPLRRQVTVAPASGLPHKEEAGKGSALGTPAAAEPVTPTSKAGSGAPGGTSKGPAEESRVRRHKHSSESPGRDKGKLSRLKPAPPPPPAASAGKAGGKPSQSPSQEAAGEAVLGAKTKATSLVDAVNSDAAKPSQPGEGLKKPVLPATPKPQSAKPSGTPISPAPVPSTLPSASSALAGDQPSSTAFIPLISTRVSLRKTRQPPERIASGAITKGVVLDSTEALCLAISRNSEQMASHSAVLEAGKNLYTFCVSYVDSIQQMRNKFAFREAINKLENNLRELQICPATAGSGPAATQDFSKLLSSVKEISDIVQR
# No constants are given. Whether binding was seen depends on the method and setting. Binding seen in cells or lysates may run through a third protein. Some entries that bind do so weakly or less than the wild type.
# Key:
# [1] = biological target: HuR (mRNA binding protein HuR), endogenous (human (endogenous in U251)) (UniProt Q15717); experiment: co-IP; immunoprecipitation of HuR (HuR3A2 antibody) from cell lysates, immunoblot for Abl-1; cells in control condition, treated with EGF and bFGF, or EGF and bFGF with dasatinib 500 nM
# Flag-HuRwild = Flag-HuRwild (UniProt Q15717); experiment: co-IP; immunoprecipitation with Flag antibody of Flag-HuR or Flag-HuRmut, immunoblot for Src and Abl1; mouse IgG as control; in the presence of growth factors
substance,measurement,setting,value
"Abl-1 kinase, endogenous (from UniProt P00519 1-1130) (enzyme)",binding,[1],binds
same,binding,Flag-HuRwild,binds
